From US20110162109A1 (BASF PLANT SCIENCE, published 2011)
No constants are given. Whether binding was seen depends on the method and setting. Some entries that bind do so weakly or less than the wild type. For part of these data: Where a sequence is shown, tags or fusion partners need not be part of it. Values belong to the binder of their own block, whether it stands above or below them.

Key:
[1] = biological target: T1, SEUSS, At1g43850 (Arabidopsis thaliana), Q8W234; assay: yeast two-hybrid; conditions: remark: other sources report otherwise
T1 chain: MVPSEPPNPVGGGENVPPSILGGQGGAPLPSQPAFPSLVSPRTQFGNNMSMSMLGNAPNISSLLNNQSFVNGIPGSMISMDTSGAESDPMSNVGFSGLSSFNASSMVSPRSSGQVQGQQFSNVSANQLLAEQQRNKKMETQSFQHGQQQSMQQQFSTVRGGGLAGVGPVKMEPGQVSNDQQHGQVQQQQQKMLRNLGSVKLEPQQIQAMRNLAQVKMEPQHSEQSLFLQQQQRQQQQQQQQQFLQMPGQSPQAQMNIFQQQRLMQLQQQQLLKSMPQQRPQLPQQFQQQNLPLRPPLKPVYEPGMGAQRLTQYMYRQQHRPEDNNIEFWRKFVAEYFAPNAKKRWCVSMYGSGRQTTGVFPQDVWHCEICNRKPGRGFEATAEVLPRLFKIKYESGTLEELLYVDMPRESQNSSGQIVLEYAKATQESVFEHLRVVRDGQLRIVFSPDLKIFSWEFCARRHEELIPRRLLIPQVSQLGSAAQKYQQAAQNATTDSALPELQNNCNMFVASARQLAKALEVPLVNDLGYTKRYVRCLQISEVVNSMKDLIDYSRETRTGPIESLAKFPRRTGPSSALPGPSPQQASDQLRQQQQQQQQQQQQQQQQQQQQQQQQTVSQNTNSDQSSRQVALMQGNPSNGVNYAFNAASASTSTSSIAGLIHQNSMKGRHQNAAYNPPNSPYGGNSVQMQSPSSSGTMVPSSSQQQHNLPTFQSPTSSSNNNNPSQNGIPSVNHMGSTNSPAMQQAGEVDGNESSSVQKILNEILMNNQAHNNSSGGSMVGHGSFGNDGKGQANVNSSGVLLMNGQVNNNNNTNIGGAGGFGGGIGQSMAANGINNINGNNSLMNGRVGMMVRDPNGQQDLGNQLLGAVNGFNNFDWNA

[2] = biological target: T2, HUB2, At1g55250, Arabidopsis thaliana (Arabidopsis thaliana, UniProt Q9C895 1-900); assay: yeast two-hybrid
T2 construct: As prey the endogenous protein of Arabidopsis cell culture; as bait N-terminal GS-TAP fusion; in yeast two-hybrid an AD fusion; also called AAG51572.1
T2 sequence: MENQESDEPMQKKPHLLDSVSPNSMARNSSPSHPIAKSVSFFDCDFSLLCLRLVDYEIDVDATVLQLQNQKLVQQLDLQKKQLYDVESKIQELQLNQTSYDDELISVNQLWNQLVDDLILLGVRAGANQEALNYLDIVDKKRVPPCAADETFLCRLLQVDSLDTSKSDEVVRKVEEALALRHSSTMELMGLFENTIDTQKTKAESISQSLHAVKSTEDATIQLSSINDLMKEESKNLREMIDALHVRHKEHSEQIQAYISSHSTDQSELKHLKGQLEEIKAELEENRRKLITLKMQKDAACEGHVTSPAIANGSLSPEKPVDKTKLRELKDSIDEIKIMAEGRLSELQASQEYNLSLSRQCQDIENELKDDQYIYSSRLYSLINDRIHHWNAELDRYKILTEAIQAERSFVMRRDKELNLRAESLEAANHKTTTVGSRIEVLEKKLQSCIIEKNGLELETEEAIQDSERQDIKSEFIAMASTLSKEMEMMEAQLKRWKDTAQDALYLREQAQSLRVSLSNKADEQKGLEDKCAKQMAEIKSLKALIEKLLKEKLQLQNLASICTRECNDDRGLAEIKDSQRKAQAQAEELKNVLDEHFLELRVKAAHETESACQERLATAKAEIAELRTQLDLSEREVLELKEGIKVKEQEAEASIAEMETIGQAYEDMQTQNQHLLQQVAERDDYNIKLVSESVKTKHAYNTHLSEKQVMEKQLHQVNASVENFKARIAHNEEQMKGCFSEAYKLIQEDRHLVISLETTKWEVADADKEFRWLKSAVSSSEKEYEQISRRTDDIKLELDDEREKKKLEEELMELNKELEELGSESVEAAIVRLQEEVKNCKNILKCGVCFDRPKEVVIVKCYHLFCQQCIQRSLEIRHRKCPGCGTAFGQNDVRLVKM

[3] = biological target: T3, HUB1 (Histone Monoubiquitination 1), At2g44950, Arabidopsis thaliana (Arabidopsis thaliana) (UniProt Q8RXD6); assay: yeast two-hybrid, pDEST22 HUB1 no RING against pDEST32 HUB1
T3 sequence: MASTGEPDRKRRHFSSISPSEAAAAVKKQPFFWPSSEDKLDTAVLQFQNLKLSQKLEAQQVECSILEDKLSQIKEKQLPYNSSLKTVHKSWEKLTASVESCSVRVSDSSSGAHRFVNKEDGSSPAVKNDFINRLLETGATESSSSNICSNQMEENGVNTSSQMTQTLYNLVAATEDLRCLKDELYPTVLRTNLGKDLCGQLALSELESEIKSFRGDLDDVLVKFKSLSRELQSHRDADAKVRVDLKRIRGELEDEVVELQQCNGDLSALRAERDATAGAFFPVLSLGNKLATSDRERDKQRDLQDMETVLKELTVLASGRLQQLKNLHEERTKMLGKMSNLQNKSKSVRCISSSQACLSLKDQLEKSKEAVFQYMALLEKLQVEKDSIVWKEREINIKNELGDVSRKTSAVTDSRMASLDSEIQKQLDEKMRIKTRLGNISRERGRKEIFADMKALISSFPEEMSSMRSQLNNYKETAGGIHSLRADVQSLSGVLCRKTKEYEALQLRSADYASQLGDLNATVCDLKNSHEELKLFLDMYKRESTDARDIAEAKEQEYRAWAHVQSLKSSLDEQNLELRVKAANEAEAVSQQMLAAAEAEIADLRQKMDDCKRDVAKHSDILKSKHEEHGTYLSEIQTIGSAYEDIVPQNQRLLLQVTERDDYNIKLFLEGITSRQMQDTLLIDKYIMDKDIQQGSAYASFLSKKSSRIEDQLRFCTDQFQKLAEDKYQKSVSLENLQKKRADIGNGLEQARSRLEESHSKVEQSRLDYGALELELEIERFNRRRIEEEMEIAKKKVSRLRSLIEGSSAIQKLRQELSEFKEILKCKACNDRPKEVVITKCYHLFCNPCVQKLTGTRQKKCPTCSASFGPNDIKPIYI

binding [1]: binds
B1: SEUSS, At1g43850 (other, Arabidopsis thaliana, UniProt Q8W234 1-877, looked up)
chain: T1 chain
notes: As prey endogenous; as bait N-terminal GS-TAP fusion; in yeast two-hybrid an AD fusion

binding [2]: binds | binding [3]: binds
B2: HUB1 no RING (enzyme)
chain: MASTGEPDRKRRHFSSISPSEAAAAVKKQPFFWPSSEDKLDTAVLQFQNLKLSQKLEAQQVECSILEDKLSQIKEKQLPYNSSLKTVHKSWEKLTASVESCSVRVSDSSSGAHRFVNKEDGSSPAVKNDFINRLLETGATESSSSNICSNQMEENGVNTSSQMTQTLYNLVAATEDLRCLKDELYPTVLRTNLGKDLCGQLALSELESEIKSFRGDLDDVLVKFKSLSRELQSHRDADAKVRVDLKRIRGELEDEVVELQQCNGDLSALRAERDATAGAFFPVLSLGNKLATSDRERDKQRDLQDMETVLKELTVLASGRLQQLKNLHEERTKMLGKMSNLQNKSKSVRCISSSQACLSLKDQLEKSKEAVFQYMALLEKLQVEKDSIVWKEREINIKNELGDVSRKTSAVTDSRMASLDSEIQKQLDEKMRIKTRLGNISRERGRKEIFADMKALISSFPEEMSSMRSQLNNYKETAGGIHSLRADVQSLSGVLCRKTKEYEALQLRSADYASQLGDLNATVCDLKNSHEELKLFLDMYKRESTDARDIAEAKEQEYRAWAHVQSLKSSLDEQNLELRVKAANEAEAVSQQMLAAAEAEIADLRQKMDDCKRDVAKHSDILKSKHEEHGTYLSEIQTIGSAYEDIVPQNQRLLLQVTERDDYNIKLFLEGITSRQMQDTLLIDKYIMDKDIQQGSAYASFLSKKSSRIEDQLRFCTDQFQKLAEDKYQKSVSLENLQKKRADIGNGLEQARSRLEESHSKVEQSRLDYGALELELEIERFNRRRIEEEMEIAKKKVSRLRSLIEGSSAIQKLRQELSEFKEILK
